Experimental data published in publication doi:10.1101/2021.03.31.437839.
Results are given in words; binding and its absence hold for the method and conditions named. Binding seen in cells or lysates may run through a third protein. Some entries that bind do so weakly or less than the wild type.

Sequences of proteins named here, by UniProt entry; tags and fusion partners are left off.
UniProt P84022: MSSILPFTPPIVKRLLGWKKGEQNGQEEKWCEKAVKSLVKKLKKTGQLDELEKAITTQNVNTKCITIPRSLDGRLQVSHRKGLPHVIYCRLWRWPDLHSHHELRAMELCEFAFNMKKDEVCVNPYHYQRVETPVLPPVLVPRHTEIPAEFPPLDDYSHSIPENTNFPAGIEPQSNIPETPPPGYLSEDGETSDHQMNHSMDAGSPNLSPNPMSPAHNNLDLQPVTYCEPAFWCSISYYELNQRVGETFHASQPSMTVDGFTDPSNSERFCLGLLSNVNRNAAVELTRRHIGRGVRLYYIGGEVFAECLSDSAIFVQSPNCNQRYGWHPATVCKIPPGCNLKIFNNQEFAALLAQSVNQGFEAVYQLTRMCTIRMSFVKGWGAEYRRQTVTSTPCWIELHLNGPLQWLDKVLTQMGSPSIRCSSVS
UniProt Q92841: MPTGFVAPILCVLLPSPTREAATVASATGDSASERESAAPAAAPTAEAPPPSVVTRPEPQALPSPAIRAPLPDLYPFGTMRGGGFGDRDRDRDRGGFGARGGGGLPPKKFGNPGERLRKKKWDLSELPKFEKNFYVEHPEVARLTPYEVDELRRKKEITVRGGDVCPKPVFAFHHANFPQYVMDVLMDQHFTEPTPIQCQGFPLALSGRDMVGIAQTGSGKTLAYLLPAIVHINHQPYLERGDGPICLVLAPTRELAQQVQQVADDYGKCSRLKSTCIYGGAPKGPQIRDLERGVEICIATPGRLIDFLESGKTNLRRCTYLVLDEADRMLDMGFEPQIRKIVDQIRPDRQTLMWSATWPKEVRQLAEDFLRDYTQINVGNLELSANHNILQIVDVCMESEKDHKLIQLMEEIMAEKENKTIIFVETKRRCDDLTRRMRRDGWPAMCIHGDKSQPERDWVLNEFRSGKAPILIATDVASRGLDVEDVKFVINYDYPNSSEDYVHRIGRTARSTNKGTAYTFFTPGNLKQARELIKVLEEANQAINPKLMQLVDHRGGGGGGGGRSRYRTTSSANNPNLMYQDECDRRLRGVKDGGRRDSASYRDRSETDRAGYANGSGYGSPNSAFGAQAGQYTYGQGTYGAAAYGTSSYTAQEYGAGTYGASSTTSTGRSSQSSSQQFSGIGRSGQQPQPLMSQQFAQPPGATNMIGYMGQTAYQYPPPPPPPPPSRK
UniProt Q9GZN2: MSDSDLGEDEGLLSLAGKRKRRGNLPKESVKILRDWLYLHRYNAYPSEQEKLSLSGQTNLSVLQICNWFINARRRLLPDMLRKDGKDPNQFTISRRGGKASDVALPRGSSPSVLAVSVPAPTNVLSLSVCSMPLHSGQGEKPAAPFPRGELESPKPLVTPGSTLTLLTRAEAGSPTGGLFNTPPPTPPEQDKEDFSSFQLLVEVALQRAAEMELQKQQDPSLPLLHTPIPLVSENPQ

What was measured:
Assay in all cases: co-IP
[1] = target: HA-SMAD3 (human) (UniProt P84022)
[2] = target: FLAG-SMAD3 (SMAD Family Member 3) (human) (UniProt P84022)
[3] = target: HA-DDX17 (human) (UniProt Q92841)

Substance: FLAG-TGIF2 (TGFB-induced factor homeobox 2) (from UniProt Q9GZN2 1-237)
- binding [1]: binds

Substance: HA-TGIF2 (from UniProt Q9GZN2 1-237)
- binding [2]: binds

Substance: FLAG-SMAD3 (SMAD Family Member 3) (from UniProt P84022 1-425)
- binding [3]: binds
